From patent EP0331014A2, “Use of ACE inhibitors in diabetes prophylaxis” (THERA - Patent Verwaltungs-GmbH, priority 1988, dated 1989)

Experiment: Body weight during the three-year prophylaxis study
Format: in vivo, Patienten
Conditions: 2 X 3 mg tgl., Idealgewicht: Größe (cm)-100-15%
Source text: Es wurden 122 übergewichtigte Personen ausgesucht, die im Mittel 25 % Übergewicht und eine gestörte orale Glukosetoleranz hatten. Diese Patienten gaben nach Aufklärung ihr Einverständnis an dieser Studie über 3 Jahre teilzunehmen. Sie hatten bereits 5 bis 10 Versuche einer Gewichtsabnahme hinter sich, die alle erfolglos verlaufen waren. Ein Diabetes mellitus war nach der Definition des World Health Organization-Reports (Techn. Rep. Ser. 646, 1-80, 1980), bei diesen Patieten ausgeschlossen. Sie wurden in zwei gleich starke Gruppen eingeteilt, so daß nach Alter, Ausmaß der Störung des Glucose-Toleranz-Tests (OGTT) und Größe und Dauer des Übergewichts kein Unterschied bestand. Die Patienten wurden in halbjährlichen Abständen ambulant kontrolliert. Wie zu Beginn, wurden bei diesen Kontrollen folgende Blutwerte gemessen: Blutsenkung, Blutbild, Nüchternblutzucker, OGTT, Gewicht, Cholesterin und Triglyzeride, Serum Glutamat-Oxalat-Transaminase (SGOT), Serum Glutamat-Pyruvat Transaminase (SGPT). Damit wurden den Stoffwechesl beeinträchtigende Krankheiten ausgeschlossen.
Sie erste Gruppe erhielt 2 x 3 mg Captopril täglich, die zweite entsprechend Placebo. Die Patienten hatten die Auflage, keine den Stoffwech l beeinträchtigende Medikamente, z.B. Diuretika, β-Blocker ode dergleichen einzunehmen. In beiden Gruppen schieden über den Zeitraum von 3 Jahren 28 Patienten aus verschiede nen Gründen aus. Die Gruppen veränderten sich dadurch jedoch nicht so, daß sie statistisch nicht mehr auswertbar waren.

## C[C@H](CS)C(=O)N1CCC[C@H]1C(=O)O [Captopril, 1-[(2S)-3-Mercapto-2-methylpropionyl]-L-prolin]
ZEITRAUM 1985 -1 (start)
  Gewicht (in % des Idealgewichts): 126,0 ± 1,1 % des Idealgewichts
ZEITRAUM 1986 - 2
  Gewicht (in % des Idealgewichts): 124,1 ± 1,6 % des Idealgewichts
ZEITRAUM 1987 - 2
  Gewicht (in % des Idealgewichts): 125,2 ± 1,1 % des Idealgewichts
ZEITRAUM 1988 - 1
  Gewicht (in % des Idealgewichts): 125,5 ± 1,6 % des Idealgewichts
